# Some of these results come from one statement about several compounds together. [UNA] = unlocked nucleic acid; m = 2'-O-methyl; r = 2'-OH (RNA)
# System: human TTR V30M
# Experiment: V30M TTR deposits in transgenic mice for human TTR V30M overexpression
# Type: in vivo
# Conditions: liposome formulation, tail vein 1 mg/kg, one injection per week for 4 weeks
row,Substance,"reduction of V30M TTR deposits in sciatic nerve, dorsal root ganglia, and colon over controls"
1,"ĞGCCAUGCAUGUGUUCAGAŨmU / UCUGAÃCACAUGCAUGGCCŨmU (chain 1 GGCCAUGCAUGUGUUCAGAUU; chain 2 UCUGAACACAUGCAUGGCCUU; siRNA; chain 1: sugars from the 5' end [UNA]1 r18 [UNA]1 m1, backbone not given here; chain 2: sugars from the 5' end r5 [UNA]1 r13 [UNA]1 m1, backbone not given here) [P15U6]",at least 90%
2,"ĞGCCAUGCAUGUGUUCAGAŨmU / UCUGAACACAUGCAŨGGCCŨmU (chain 1 GGCCAUGCAUGUGUUCAGAUU; chain 2 UCUGAACACAUGCAUGGCCUU; siRNA; chain 1: sugars from the 5' end [UNA]1 r18 [UNA]1 m1, backbone not given here; chain 2: sugars from the 5' end r14 [UNA]1 r4 [UNA]1 m1, backbone not given here) [P15U15]",at least 90%
3,"ĞGCCAUGCAUGUGUUCAGAŨmU / UCUGAACACAUGCAUĞGCCŨmU (chain 1 GGCCAUGCAUGUGUUCAGAUU; chain 2 UCUGAACACAUGCAUGGCCUU; siRNA; chain 1: sugars from the 5' end [UNA]1 r18 [UNA]1 m1, backbone not given here; chain 2: sugars from the 5' end r15 [UNA]1 r3 [UNA]1 m1, backbone not given here) [P15U16]",at least 90%
4,"ĞGCCAUGCAUGUGUUCAGAŨmU / UCUGAAĈACAUGCAUGGCCŨmU (chain 1 GGCCAUGCAUGUGUUCAGAUU; chain 2 UCUGAACACAUGCAUGGCCUU; siRNA; chain 1: sugars from the 5' end [UNA]1 r18 [UNA]1 m1, backbone not given here; chain 2: sugars from the 5' end r6 [UNA]1 r12 [UNA]1 m1, backbone not given here) [P15U7]",at least 90%
